Experimental data published in PubChem BioAssay AID2685 (National Center for Advancing Translational Sciences (NCATS), 2010).
The other results are listed elsewhere or left out. Further columns of the screen follow, without active or inactive calls. The list favours compounds with an active or inconclusive main result. Words in brackets tell the shape of the fitted curve; partial curves, single points and poor fits give uncertain potencies.

Test: qHTS Assay for Lipid Storage Modulators in Drosophila S3 Cells;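 as to cell number change: cells counted by Cell Tracker Red CMTPX staining in the red channel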
Conditions: BODIPY lipid droplet fluorescence, 18-24 h; for cell number change: measured here: cell count max response, cells fed with added oleic acid
Summary of the method: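 Drosophila S3 cells got compounds at several concentrations plus oleic acid (400 uM solution). Laser-scanning cytometry with 488 nm excitation read lipid droplets at 500-530 nm and cells at 575-640 nm. Percent activity was relative to 20 uM Triacsin C.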

[1] = measured here: lipid fluorescence (Fed channel) AC50, cells fed with added oleic acid
[2] = measured here: cell number channel AC50, cells fed with added oleic acid

COc1ccc(NC(=O)CCCC(=O)O)cc1Cl
AC50 [1]: 0.116 µM [rising, full curve]

O=C(O)CN(c1ccccn1)S(=O)(=O)c1ccc(Cl)cc1
cell number change: -15.3% | AC50 [2]: 1.16 µM [falling, full curve, poor fit]

CCOc1nc(-c2ccncc2)nc2ccccc12
cell number change: -38.2% | AC50 [2]: 29.1 µM [falling, single point] | AC50 [1]: 29.1 µM [falling, single point]

COc1ccc(C2CC(c3cccs3)=NN2C(=O)COC(=O)c2cc3ccccc3cc2O)cc1OC (stereo not drawn)
cell number change: 15.3% | AC50 [1]: 0.058 µM [rising, full curve, poor fit]

CCCn1c(N)c(N(CCOC)C(=O)C(C)Oc2ccc(F)cc2)c(=O)[nH]c1=O (stereo not drawn)
cell number change: -23.3%

COc1ccc(C(=O)OCC(=O)Nc2c(C)cccc2C)cc1
cell number change: 40.3% | AC50 [2]: 5.8 µM [rising, partial curve]

CCSc1nnc(NC(=O)c2cc(-c3ccccc3O)n[nH]2)s1
cell number change: 6.79%

O=C(O)c1ccc(CNC(=O)c2ccc(C(F)(F)F)cc2)cc1
cell number change: -53.6% | AC50 [2]: 29.1 µM [falling, single point]

Cc1c(-c2ccccc2)oc2nc3c(c(=O)n(C)c(=O)n3C)n12
cell number change: -46.4% | AC50 [2]: 7.31 µM [falling, partial curve]

CCC1(C)SC(N)=NN1C(C)=O (stereo not drawn)
cell number change: -1.55%

NC(=O)C1CCN(C(=O)CSc2ccccn2)CC1
cell number change: -33.1% | AC50 [2]: 0.082 µM [falling, full curve, poor fit] | AC50 [1]: 6.51 µM [falling, single point]

O=C(COc1ccc(Br)cc1Br)NC(=O)NC1CCCC1
cell number change: -31.2% | AC50 [2]: 32.6 µM [falling, single point] | AC50 [1]: 32.6 µM [falling, single point]

Cc1cc(NC(=O)c2cc(-c3ccccc3)on2)no1
cell number change: 13.2% | AC50 [1]: 29.1 µM [falling, single point]

O=C(NC1C/C(=N/O)c2cc3c(cc21)OCO3)C(F)(F)F (stereo not drawn)
cell number change: 9.62% | AC50 [1]: 2.31 µM [rising, full curve, poor fit]

Cc1ccc(N2CC(C(=O)NCc3n[nH]c(=O)c4ccccc34)CC2=O)cc1 (stereo not drawn)
cell number change: -0.578%

CN(CCC1CCOCC1)C(=O)c1cc(COc2c(F)cccc2F)on1
cell number change: -4.01% | AC50 [1]: 25.9 µM [rising, partial curve]

O=C(Nc1cccc(-n2cnnn2)c1)c1cc(Cl)ccc1Cl
AC50 [1]: 2.59 µM [rising, full curve]

O=C(Nc1ccccc1C(=O)NCc1ccccc1)C1=CSCCO1
cell number change: 5.6% | AC50 [1]: 6.51 µM [rising, partial curve, poor fit]

Cc1cccc(C(=O)c2ccccc2C(=O)O)c1
cell number change: -33.7% | AC50 [2]: 29.1 µM [falling, single point] | AC50 [1]: 20.6 µM [falling, single point]

CS(=O)(=O)N(CC(=O)NCCSCc1ccccc1)c1ccccc1F
AC50 [1]: 0.58 µM [rising, single point]

O=c1ccc2ccc(Oc3ccc([N+](=O)[O-])cc3[N+](=O)[O-])cc2o1
cell number change: -20.5% | AC50 [1]: 18.4 µM [falling, partial curve]

O=C(N/N=C\c1cccnc1)c1ccc(Cl)cc1Cl
cell number change: 17.8% | AC50 [1]: 0.58 µM [rising, full curve, poor fit]

COc1cccc(NC(=O)CN(C)CC(=O)Nc2ccc(Cl)cc2[N+](=O)[O-])c1
cell number change: 15.6% | AC50 [2]: 2.31 µM [rising, single point] | AC50 [1]: 3.26 µM [rising, single point]

O=[N+]([O-])c1nn(-c2ccc3c(c2)OCCO3)n(O)c1=NCCCO
cell number change: -23.2% | AC50 [1]: 14.6 µM [falling, single point]

CCOC(=O)C1=C(C)N=C2SC(C(=O)OC)=CC(=O)N2C1c1ccc(OC)cc1 (stereo not drawn)
cell number change: -29% | AC50 [1]: 23.1 µM [falling, single point]

COc1ccc(N(CC(=O)NN=C2CCCCCCC2)S(=O)(=O)c2ccccc2)cc1
AC50 [1]: 6.51 µM [rising, single point]

COc1cccc(OCCc2c(C)n[nH]c2C)c1
cell number change: -23.9% | AC50 [1]: 1.16 µM [rising, partial curve, poor fit]

COc1ccc(NC(=O)C2CC(=O)N(Cc3ccco3)C2)cc1Cl (stereo not drawn)
cell number change: -5.19% | AC50 [1]: 16.4 µM [rising, partial curve]

C/C(=C\c1ccccc1)CN1CCC(C(=O)N2CCCC(C)C2)CC1 (stereo not drawn)
cell number change: 14% | AC50 [1]: 1.84 µM [falling, partial curve]

Cc1cc(C)nc(N(C#N)CN2C(=O)c3ccccc3S2(=O)=O)n1
cell number change: -27.1% | AC50 [1]: 29.1 µM [falling, single point]

Cc1cccc2sc(NC(=O)c3ccc(NS(=O)(=O)c4cccs4)cc3)nc12
cell number change: 11.9% | AC50 [1]: 2.59 µM [rising, full curve]

Cc1ccc(/C=C/C(=O)NC2=NCCS2)cc1
cell number change: 168% | AC50 [2]: 29.1 µM [rising, single point] | AC50 [1]: 29.1 µM [rising, single point]

CCc1nc(SCC(=O)Nc2nccs2)c2oc3ccccc3c2n1
AC50 [2]: 0.82 µM [rising, full curve] | AC50 [1]: 1.64 µM [rising, partial curve]

CCn1c(SCC(=O)NC(=O)NCc2ccco2)nc2sc(C)c(C)c2c1=O
cell number change: -3.33%

CC(c1ccccc1)n1c(NCCCn2ccnc2)nc2c1c(=O)[nH]c(=O)n2C (stereo not drawn)
cell number change: -4.97% | AC50 [1]: 9.2 µM [rising, partial curve]

Cc1ccc(NC(=O)CSc2nnc(C3CC3)n2CC2CCCO2)c(C)c1 (stereo not drawn)
cell number change: -10.8% | AC50 [1]: 0.58 µM [falling, single point]

CCOC(=O)c1sc2ncn(/N=C/N(C)C)c(=O)c2c1C
cell number change: 161% | AC50 [2]: 23.1 µM [rising, single point]

CCOc1cccc(-c2c(C(=O)N/N=C/c3ccncc3)nnn2-c2nonc2N)c1
cell number change: 25.1% | AC50 [1]: 0.58 µM [rising, single point]

O=C(COc1ccc([N+](=O)[O-])cc1Cl)NCCc1ccccc1
cell number change: 63.1% | AC50 [2]: 29.1 µM [rising, single point] | AC50 [1]: 2.31 µM [rising, partial curve, poor fit]

OC(CCN1CCOCC1)(c1ccc(Cl)cc1)C1CCCCC1 (stereo not drawn)
cell number change: -43.8% | AC50 [2]: 32.6 µM [falling, single point]

Cc1nnsc1C(=O)Nc1ccc(S(=O)(=O)N2CCC(C)CC2)cc1
cell number change: 7.65% | AC50 [1]: 29.1 µM [falling, single point]

CN(CCCC1CCCC1)C(=O)c1cc(COc2ccc(F)c(F)c2)on1
cell number change: -27.9%

O=C(COc1ccc2ccccc2c1Br)NCc1ccccn1
cell number change: -43.6%

CC(=O)C1=C(O)CC(c2ccccc2)CC1=NCCc1c(C)[nH]c2ccccc12 (stereo not drawn)
cell number change: -0.936% | AC50 [1]: 0.326 µM [rising, full curve]

Cc1cccc(NC(=O)C2CCCN(S(=O)(=O)c3cccc4cccnc34)C2)c1 (stereo not drawn)
cell number change: 34.9% | AC50 [2]: 23.1 µM [rising, single point]

CS(=O)(=O)Oc1ccc2c(c1)O/C(=C\C=C\c1ccccc1)C2=O
cell number change: -40.8% | AC50 [2]: 29.1 µM [falling, single point] | AC50 [1]: 6.51 µM [falling, partial curve]

CCN(CC)S(=O)(=O)c1ccc(Br)c(OC)c1
cell number change: -85.2% | AC50 [2]: 32.6 µM [falling, partial curve, poor fit] | AC50 [1]: 16.4 µM [falling, partial curve]

CCn1cc(C(=O)NCC2CCCO2)c2cc(OC)c(OC)cc2c1=O (stereo not drawn)
cell number change: 2.8% | AC50 [1]: 0.00461 µM [falling, full curve, poor fit]

Cc1ccc(C)c(NC(=O)CCN2C(=O)[C@@H]3Cc4ccccc4CN3C2=O)c1
cell number change: 26.7% | AC50 [1]: 29.1 µM [rising, single point]

Cc1ccc(CCC(=O)Nc2ccc(S(N)(=O)=O)cc2)o1
cell number change: -15.7% | AC50 [1]: 5.17 µM [falling, full curve]

CCN1CCN(C(=O)c2cccc(OC3CCN(S(C)(=O)=O)CC3)c2)[C@@H](C)C1=O
cell number change: 15.6% | AC50 [1]: 18.4 µM [rising, single point]

N#Cc1c(-c2cccs2)nc(SCc2ccc(Cl)cc2)[nH]c1=O
cell number change: -13.3% | AC50 [1]: 3.26 µM [falling, single point]

Cc1cccc(C(=O)NC(NCc2ccco2)C(Cl)(Cl)Cl)c1 (stereo not drawn)
cell number change: -0.324%

CC(=O)CCC(=O)OCC(=O)Nc1ccc(SC(F)F)cc1
AC50 [1]: 29.1 µM [falling, single point]

COCc1c(C(=O)N/N=C\c2cccnc2)nnn1-c1nonc1N
cell number change: -1.35% | AC50 [1]: 29.1 µM [rising, single point]

Cc1cccc(NC(=O)c2nc[nH]c2C(=O)N[C@@H](C)C(=O)OC(C)(C)C)c1
cell number change: -27%

COc1ccc(CN2CCCC(C(=O)c3ccc4c(c3)OCO4)C2)c(F)c1 (stereo not drawn)
AC50 [1]: 0.731 µM [rising, full curve]

COc1ccc(-c2nc(SC(C)C(=O)NC3CC3)n[nH]2)cc1 (stereo not drawn)
AC50 [1]: 0.461 µM [falling, full curve, poor fit]

COc1ccc2c(c1)CCc1c-2nc2ccccc2c1N1CCOCC1
cell number change: 0.0973% | AC50 [1]: 0.326 µM [rising, full curve]

COc1cccc(NC(=O)c2sc3nc(N4CCOCC4)c4c(c3c2N)CCCC4)c1
cell number change: -30.9% | AC50 [2]: 3.66 µM [falling, full curve, poor fit]

COc1ccc(/C=C2\CCC(C3CCCC3)C2=O)c(OC)c1OC (stereo not drawn)
cell number change: 24.1% | AC50 [1]: 0.103 µM [rising, full curve, poor fit]

CCN(CC)CCCNC(=O)CNC(=O)c1nn(-c2ccc(OC)cc2)c(=O)c2ccccc12
cell number change: 41.7% | AC50 [2]: 0.92 µM [rising, full curve, poor fit] | AC50 [1]: 29.1 µM [rising, partial curve, poor fit]
